Results are given in words; binding and its absence hold for the method and conditions named. Binding seen in cells or lysates may run through a third protein. Some entries that bind do so weakly or less than the wild type.

Among the data in publication PMC5732150 are binding values, retold here.

Test [1] concerns the target T1, CD44 (mouse (endogenous in splenic B lymphocytes)) (UniProt P15379).
T1 sequence: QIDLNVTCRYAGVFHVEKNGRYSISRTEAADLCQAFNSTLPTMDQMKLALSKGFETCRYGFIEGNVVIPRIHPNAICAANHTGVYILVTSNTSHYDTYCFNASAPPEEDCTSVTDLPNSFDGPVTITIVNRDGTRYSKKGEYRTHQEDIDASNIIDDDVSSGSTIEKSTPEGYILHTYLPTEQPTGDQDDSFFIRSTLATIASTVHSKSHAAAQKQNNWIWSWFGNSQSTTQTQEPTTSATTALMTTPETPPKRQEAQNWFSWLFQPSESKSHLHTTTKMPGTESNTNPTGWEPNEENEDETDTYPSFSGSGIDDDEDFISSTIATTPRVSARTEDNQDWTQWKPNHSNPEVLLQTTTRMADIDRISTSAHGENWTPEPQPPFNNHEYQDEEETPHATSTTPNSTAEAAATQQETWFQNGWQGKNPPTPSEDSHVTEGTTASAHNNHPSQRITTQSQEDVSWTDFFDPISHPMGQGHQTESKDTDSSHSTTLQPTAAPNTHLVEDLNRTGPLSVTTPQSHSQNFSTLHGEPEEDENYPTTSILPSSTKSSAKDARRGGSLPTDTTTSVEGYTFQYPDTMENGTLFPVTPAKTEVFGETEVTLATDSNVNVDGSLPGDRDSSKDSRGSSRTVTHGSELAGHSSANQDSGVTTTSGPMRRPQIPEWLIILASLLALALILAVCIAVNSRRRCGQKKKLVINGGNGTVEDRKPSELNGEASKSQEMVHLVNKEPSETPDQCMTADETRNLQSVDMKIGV
The test is described as follows: co-IP; Lysates (RIPA buffer, 1% Triton X-100) of resting, LPS plus IL-4 activated, HA-stimulated or CD44-capped mouse B lymphocytes; precipitated with α-Myo1g or NIM-R8 (α-CD44), 4 h at 4°C, protein G-agarose; Western blot; CD44 precipitates compared between WT and Myo1g-deficient cells. A general note: A western blot detects proteins with antibodies after separation by electrophoresis.

Test [2] addresses T2, Myosin 1g (mouse (endogenous in splenic B lymphocytes)) (UniProt Q5SUA5).
T2 sequence: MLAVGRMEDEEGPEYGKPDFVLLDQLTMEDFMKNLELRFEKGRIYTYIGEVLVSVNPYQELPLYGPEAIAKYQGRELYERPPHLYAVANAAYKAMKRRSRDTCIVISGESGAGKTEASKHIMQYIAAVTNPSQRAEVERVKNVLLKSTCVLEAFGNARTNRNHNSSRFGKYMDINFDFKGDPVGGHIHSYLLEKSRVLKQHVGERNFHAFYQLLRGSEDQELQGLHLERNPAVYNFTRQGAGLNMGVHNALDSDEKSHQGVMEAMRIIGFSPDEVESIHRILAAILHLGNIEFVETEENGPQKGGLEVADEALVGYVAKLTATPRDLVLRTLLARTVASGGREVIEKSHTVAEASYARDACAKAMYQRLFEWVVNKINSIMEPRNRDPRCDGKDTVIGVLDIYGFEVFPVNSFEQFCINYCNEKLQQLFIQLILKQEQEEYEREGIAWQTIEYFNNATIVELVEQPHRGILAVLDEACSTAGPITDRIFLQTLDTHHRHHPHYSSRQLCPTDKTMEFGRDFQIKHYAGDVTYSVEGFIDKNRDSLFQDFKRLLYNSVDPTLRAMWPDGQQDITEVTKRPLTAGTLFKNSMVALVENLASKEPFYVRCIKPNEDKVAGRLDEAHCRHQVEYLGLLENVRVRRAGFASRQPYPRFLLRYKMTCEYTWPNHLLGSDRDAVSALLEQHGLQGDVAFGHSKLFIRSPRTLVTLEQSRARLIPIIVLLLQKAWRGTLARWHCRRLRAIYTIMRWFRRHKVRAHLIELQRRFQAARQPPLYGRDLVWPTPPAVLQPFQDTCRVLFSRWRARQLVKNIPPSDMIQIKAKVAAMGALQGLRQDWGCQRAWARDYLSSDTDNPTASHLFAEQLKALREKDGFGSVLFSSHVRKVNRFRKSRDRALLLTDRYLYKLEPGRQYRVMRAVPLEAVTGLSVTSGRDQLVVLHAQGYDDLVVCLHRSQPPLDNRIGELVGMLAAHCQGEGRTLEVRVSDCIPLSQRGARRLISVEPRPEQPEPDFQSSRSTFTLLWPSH
The description is as above.

B1: Myosin 1g (protein, UniProt Q5SUA5 1-1024)
chain: MLAVGRMEDEEGPEYGKPDFVLLDQLTMEDFMKNLELRFEKGRIYTYIGEVLVSVNPYQELPLYGPEAIAKYQGRELYERPPHLYAVANAAYKAMKRRSRDTCIVISGESGAGKTEASKHIMQYIAAVTNPSQRAEVERVKNVLLKSTCVLEAFGNARTNRNHNSSRFGKYMDINFDFKGDPVGGHIHSYLLEKSRVLKQHVGERNFHAFYQLLRGSEDQELQGLHLERNPAVYNFTRQGAGLNMGVHNALDSDEKSHQGVMEAMRIIGFSPDEVESIHRILAAILHLGNIEFVETEENGPQKGGLEVADEALVGYVAKLTATPRDLVLRTLLARTVASGGREVIEKSHTVAEASYARDACAKAMYQRLFEWVVNKINSIMEPRNRDPRCDGKDTVIGVLDIYGFEVFPVNSFEQFCINYCNEKLQQLFIQLILKQEQEEYEREGIAWQTIEYFNNATIVELVEQPHRGILAVLDEACSTAGPITDRIFLQTLDTHHRHHPHYSSRQLCPTDKTMEFGRDFQIKHYAGDVTYSVEGFIDKNRDSLFQDFKRLLYNSVDPTLRAMWPDGQQDITEVTKRPLTAGTLFKNSMVALVENLASKEPFYVRCIKPNEDKVAGRLDEAHCRHQVEYLGLLENVRVRRAGFASRQPYPRFLLRYKMTCEYTWPNHLLGSDRDAVSALLEQHGLQGDVAFGHSKLFIRSPRTLVTLEQSRARLIPIIVLLLQKAWRGTLARWHCRRLRAIYTIMRWFRRHKVRAHLIELQRRFQAARQPPLYGRDLVWPTPPAVLQPFQDTCRVLFSRWRARQLVKNIPPSDMIQIKAKVAAMGALQGLRQDWGCQRAWARDYLSSDTDNPTASHLFAEQLKALREKDGFGSVLFSSHVRKVNRFRKSRDRALLLTDRYLYKLEPGRQYRVMRAVPLEAVTGLSVTSGRDQLVVLHAQGYDDLVVCLHRSQPPLDNRIGELVGMLAAHCQGEGRTLEVRVSDCIPLSQRGARRLISVEPRPEQPEPDFQSSRSTFTLLWPSH
Turning to B1, the binding result in test [1] is “binds”.

B2: CD44 (receptor, UniProt P15379 23-778)
chain: QIDLNVTCRYAGVFHVEKNGRYSISRTEAADLCQAFNSTLPTMDQMKLALSKGFETCRYGFIEGNVVIPRIHPNAICAANHTGVYILVTSNTSHYDTYCFNASAPPEEDCTSVTDLPNSFDGPVTITIVNRDGTRYSKKGEYRTHQEDIDASNIIDDDVSSGSTIEKSTPEGYILHTYLPTEQPTGDQDDSFFIRSTLATIASTVHSKSHAAAQKQNNWIWSWFGNSQSTTQTQEPTTSATTALMTTPETPPKRQEAQNWFSWLFQPSESKSHLHTTTKMPGTESNTNPTGWEPNEENEDETDTYPSFSGSGIDDDEDFISSTIATTPRVSARTEDNQDWTQWKPNHSNPEVLLQTTTRMADIDRISTSAHGENWTPEPQPPFNNHEYQDEEETPHATSTTPNSTAEAAATQQETWFQNGWQGKNPPTPSEDSHVTEGTTASAHNNHPSQRITTQSQEDVSWTDFFDPISHPMGQGHQTESKDTDSSHSTTLQPTAAPNTHLVEDLNRTGPLSVTTPQSHSQNFSTLHGEPEEDENYPTTSILPSSTKSSAKDARRGGSLPTDTTTSVEGYTFQYPDTMENGTLFPVTPAKTEVFGETEVTLATDSNVNVDGSLPGDRDSSKDSRGSSRTVTHGSELAGHSSANQDSGVTTTSGPMRRPQIPEWLIILASLLALALILAVCIAVNSRRRCGQKKKLVINGGNGTVEDRKPSELNGEASKSQEMVHLVNKEPSETPDQCMTADETRNLQSVDMKIGV
In the case of B2, the binding entry in test [2] was “binds”.
